Here are results for two sequences from paper PMC12782891.

The exact form of at least one protein or probe is not confirmed.

In this data set the test system is GST-OsSAE1 (Oryza sativa). The data set can be described thus: EMSA. The conditions noted are these: competed by excess unlabeled probe; LightShift Chemiluminescent EMSA Kit (Thermo Fisher), manufacturer's instructions; pH and temperature not stated; recombinant protein; protein details: N-terminal GST (pGEX6p-1); label: biotin. (In general: Mobility shift assays separate free from complexed probe on a gel.)

As for “AGAACCGGAGAAGAGAGCAATGGCGGCAATGCTTAATTATCTGCTGGAG (double strand) [OsGA2ox3 promoter P2 GCC-box probe]”, the binding result was “binds”.

For the sequence “CTGATTTTTGCCCGAGGCACGGCCGCCACAGCCTCTAGGAGTGCACCTG (double strand) [OsKS1 promoter P1 GCC-box probe]”, the binding result was “binds”.
